From PubChem BioAssay AID540256 (National Center for Advancing Translational Sciences (NCATS), 2011)
The whole screen tested about 300,000 compounds, of which about 3,700 (1.2%) were called active. Inconclusive results, whose numbers are uncertain, are shown with a selection of clear calls. Calls come from the whole dose curve; tested in HEK293 cells. A potency beside an inconclusive call is a rough fit, not a confirmed value.

Assay: qHTS for Inhibitors of binding or entry into cells for Lassa Virus; note: nearly all actives have a fitted effect of over 50% in size
Settings: Lassa virus pseudotype entry inhibition, cell reporter; series mostly up to 37.9 µM
Potency is the fitted concentration of half-maximal effect.

| SMILES | Potency |
| --- | --- |
| O=C(NCc1ccccc1)c1ccc(=O)[nH]n1 | inconclusive: 35.5 µM [activator, partial curve, poor fit] |
| CC(=O)N1c2ccc(S(=O)(=O)N3CCCC(C(=O)N4CCCC(C)C4)C3)cc2CC1C (stereo not given) | inactive |
| CC(=NNC(=S)Nc1cccc(C)c1)c1ccccn1 | inconclusive: 0.224 µM [inhibitor, full curve, poor fit] |
| CC(=NCc1ccc2c(c1)OCO2)c1c(O)n(Cc2ccccc2)c(=O)[nH]c1=O | inconclusive: 10 µM [inhibitor, partial curve] |
| O=C(Nc1cccnc1Cl)c1cccs1 | inactive |
| COC(=O)c1sc(-n2cnc3cc(OC)c(OC)cc32)cc1OCc1ccccc1C(F)(F)F | inconclusive: 7.91 µM [inhibitor, partial curve, poor fit] |
| Cc1ccc(SCCC(=O)NCC2CCCO2)cc1 (stereo not given) | inactive |
| O=C(c1ccc([N+](=O)[O-])cc1)N(Cc1ccccc1)Cc1ccccc1 | inconclusive: 15.8 µM [inhibitor, single point] |
| COc1ccc(/C(O)=C2/C(=O)C(=O)N(c3ncccn3)C2c2ccc(OC)c(OC)c2)cc1 (stereo not given) | inactive |
| Cc1cccc(C(=O)O/N=C2\CCCc3ccccc32)c1 | inconclusive: 29.1 µM [activator, partial curve, poor fit] |
| Cc1cc(C)c(S(=O)(=O)c2ccccc2C(=O)O)c(C)c1 | inconclusive: 29.1 µM [activator, partial curve, poor fit] |
| O=C(COc1ccc(Cl)cc1Cl)NNC(=O)c1cccnc1 | inactive |
| O=c1oc2ccccc2c(O)c1Sc1c(O)c2ccccc2oc1=O | inconclusive: 1.41 µM [inhibitor, partial curve, poor fit] |
| COC(=O)[C@H]1O[C@@H](c2cc(OC)c(C)c(OC)c2O)[C@H](C)[C@@H](O)[C@@H]1C | inconclusive: 0.841 µM [inhibitor, full curve, poor fit] |
| CC(C)=NNc1nc2c(c(=O)[nH]c(=O)n2C)n1CCc1ccccc1 | inconclusive: 35.5 µM [activator, single point] |
| COC(=O)C(Cc1ccc(OC(=O)c2ccccc2Cl)cc1)N1Cc2ccccc2C1=O (stereo not given) | inconclusive: 35.5 µM [inhibitor, single point] |
| Cc1ccc(NC(=O)CSc2nc3[nH]ncc3c(=O)[nH]2)cc1Cl | inconclusive: 2.51 µM [inhibitor, full curve, poor fit] |
| O=C(Nc1ccc2c(c1)CCC2)c1cccs1 | inconclusive: 14.1 µM [inhibitor, single point] |
| CSc1ccc(CNC2CC2)cc1 | inconclusive: 29.1 µM [activator, single point] |
| O=C(/C=C/c1cn(-c2ccccc2)nc1-c1ccccc1)Nc1ccc(C(=O)O)cc1 | inconclusive: 0.103 µM [activator, full curve, poor fit] |

Another view of part of the listing above:
SMILES	Potency
O=C(NCc1ccccc1)c1ccc(=O)[nH]n1	inconclusive: 35.5 µM [activator, partial curve, poor fit]
CC(=O)N1c2ccc(S(=O)(=O)N3CCCC(C(=O)N4CCCC(C)C4)C3)cc2CC1C (stereo not given)	inactive
CC(=NNC(=S)Nc1cccc(C)c1)c1ccccn1	inconclusive: 0.224 µM [inhibitor, full curve, poor fit]

Remaining list, next part

| SMILES | Potency |
| --- | --- |
| CCC(CC)NCc1ccc2c(c1)c1ccccc1n2CC | inconclusive: 20.6 µM [inhibitor, single point] |
| Cc1ccc(C)c(CS(=O)(=O)c2cn(CC(=O)N3CCC(C)CC3)c3ccccc23)c1 | inconclusive: 28.2 µM [inhibitor, single point] |
| Cc1cc(C)c(-c2csc(NC(=O)CCCc3nc4ccccc4c(=O)[nH]3)n2)c(C)c1 | inconclusive: 22.4 µM [inhibitor, partial curve] |
| COc1ccccc1NC(=O)/C(=N/OCc1ccc(F)cc1)C(C)=O | inconclusive: 0.891 µM [inhibitor, full curve, poor fit] |
| N=C1SCC(=O)N1c1ncc(Cc2ccccc2Cl)s1 | inconclusive: 15.8 µM [inhibitor, single point] |
| O=C(Cn1cc(COc2cccc([N+](=O)[O-])c2)nn1)c1ccc(O)cc1 | inconclusive: 2.23 µM [inhibitor, partial curve, poor fit] |
| CN(C)c1ccc(CN(Cc2ccco2)C(=O)c2ccc(F)cc2)cc1 | inconclusive: 3.16 µM [inhibitor, partial curve, poor fit] |
| CC(/C=C/c1ccccc1)=N\NC(=S)NC(C)C | inconclusive: 3.55 µM [inhibitor, single point] |
| COc1c(Cl)cc(C(=O)Nc2ccccc2C(=O)O)cc1Cl | inconclusive: 11.6 µM [inhibitor, partial curve, poor fit] |
| Cc1ccc(-n2nc3c(N4CCC(C(=O)N(C)Cc5ccccc5)CC4)nnc(C)c3c2C)cc1 | inconclusive: 2.82 µM [activator, partial curve] |
| Cc1cccc(-n2c(SCC(=O)Nc3cccc(S(=O)(=O)NC4=NCCCCC4)c3)nc3ccccc3c2=O)c1C | inconclusive: 3.66 µM [inhibitor, full curve, poor fit] |
| CC(=O)N1c2ccc(S(=O)(=O)NCC3CCC(C(=O)Nc4cc(C)cc(C)c4)CC3)cc2CC1C (stereo not given) | inconclusive: 14.1 µM [inhibitor, single point] |
| Cc1ccccc1NC(=O)c1ccccc1NC(=O)Cc1cccc2ccccc12 | inactive |
| Cc1cc(C(C)(C)C)ccc1OCCn1ccnc1 | inconclusive: 35.5 µM [inhibitor, single point] |
| COCCCNC(=O)c1cc(S(=O)(=O)N2CCOCC2)ccc1SCc1cccc(OC)c1OC | inconclusive: 35.5 µM [activator, single point] |
| COC(=O)C1=C(C(=O)OC)[C@@H]2Nc3ccccc3[C@@]23C[C@@H](C(=O)OC)N(C(=O)COCc2ccccc2)C3=N1 | inconclusive: 0.0168 µM [inhibitor, full curve, poor fit] |
| COc1ccc(CC(=O)N2CCN(c3ccc(C4=NNC(=O)CC4C)cc3)CC2)cc1 (stereo not given) | inconclusive: 3.98 µM [inhibitor, partial curve, poor fit] |
| CCc1ccccc1OCCCCCNCCO | inactive |
| CCOc1ccc(C(=O)Nc2ccc3c(c2)N(C(C)=O)CCC3)cc1OCC | inactive |
| CCOc1ccc(NC(=O)CN(C)C(=O)CN2C(=O)NC3(CCCC3)C2=O)cc1OCC | inactive |
